According to the supplement of paper PMC10849652:
This is one part of the list.

Sequences of proteins named here, by UniProt entry; tags and fusion partners are left off. A change or cut given only in a name is not applied to a line headed by its entry.
UniProt Q9UN86: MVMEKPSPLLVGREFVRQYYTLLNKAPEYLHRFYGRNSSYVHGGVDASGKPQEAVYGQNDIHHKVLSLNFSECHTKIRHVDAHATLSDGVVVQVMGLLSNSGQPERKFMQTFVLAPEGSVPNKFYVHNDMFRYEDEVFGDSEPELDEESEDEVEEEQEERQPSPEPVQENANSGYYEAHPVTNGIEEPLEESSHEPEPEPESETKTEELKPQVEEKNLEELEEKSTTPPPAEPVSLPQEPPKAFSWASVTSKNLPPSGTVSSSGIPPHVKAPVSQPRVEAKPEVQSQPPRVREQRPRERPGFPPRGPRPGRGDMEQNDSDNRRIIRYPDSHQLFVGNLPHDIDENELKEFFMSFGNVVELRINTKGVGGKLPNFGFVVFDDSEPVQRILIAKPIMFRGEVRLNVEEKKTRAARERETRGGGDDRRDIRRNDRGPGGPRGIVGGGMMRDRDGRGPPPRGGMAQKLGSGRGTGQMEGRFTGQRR
UniProt P57678: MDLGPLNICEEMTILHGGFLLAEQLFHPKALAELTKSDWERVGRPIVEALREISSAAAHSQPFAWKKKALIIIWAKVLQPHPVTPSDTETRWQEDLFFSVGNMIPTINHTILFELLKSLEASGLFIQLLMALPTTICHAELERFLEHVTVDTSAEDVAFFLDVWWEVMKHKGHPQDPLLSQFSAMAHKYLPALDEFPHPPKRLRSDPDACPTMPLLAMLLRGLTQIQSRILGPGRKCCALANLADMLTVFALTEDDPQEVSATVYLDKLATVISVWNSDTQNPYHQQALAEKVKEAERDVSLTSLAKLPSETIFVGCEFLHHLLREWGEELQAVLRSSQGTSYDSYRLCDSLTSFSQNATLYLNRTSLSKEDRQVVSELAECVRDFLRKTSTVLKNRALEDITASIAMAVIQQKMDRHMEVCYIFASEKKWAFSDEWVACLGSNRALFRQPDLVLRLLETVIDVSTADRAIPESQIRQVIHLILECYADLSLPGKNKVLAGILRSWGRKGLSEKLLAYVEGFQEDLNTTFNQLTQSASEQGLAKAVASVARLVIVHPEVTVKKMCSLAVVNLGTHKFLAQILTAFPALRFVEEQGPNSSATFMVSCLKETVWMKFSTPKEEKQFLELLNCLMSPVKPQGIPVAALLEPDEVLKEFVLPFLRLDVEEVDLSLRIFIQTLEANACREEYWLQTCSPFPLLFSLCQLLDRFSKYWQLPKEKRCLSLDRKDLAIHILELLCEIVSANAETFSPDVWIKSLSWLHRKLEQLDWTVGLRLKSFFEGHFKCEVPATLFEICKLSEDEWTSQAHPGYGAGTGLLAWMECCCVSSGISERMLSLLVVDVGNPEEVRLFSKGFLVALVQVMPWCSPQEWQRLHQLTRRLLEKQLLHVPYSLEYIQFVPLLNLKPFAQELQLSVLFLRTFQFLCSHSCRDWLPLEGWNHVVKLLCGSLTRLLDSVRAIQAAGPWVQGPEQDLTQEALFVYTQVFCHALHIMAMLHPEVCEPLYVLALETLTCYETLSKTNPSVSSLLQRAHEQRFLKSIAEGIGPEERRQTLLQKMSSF
UniProt Q9BWH2: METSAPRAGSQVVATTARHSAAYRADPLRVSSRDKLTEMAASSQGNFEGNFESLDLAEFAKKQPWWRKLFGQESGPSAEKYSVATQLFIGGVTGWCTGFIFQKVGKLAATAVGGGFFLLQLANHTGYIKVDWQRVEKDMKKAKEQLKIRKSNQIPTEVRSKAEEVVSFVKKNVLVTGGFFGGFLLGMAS
UniProt P04406: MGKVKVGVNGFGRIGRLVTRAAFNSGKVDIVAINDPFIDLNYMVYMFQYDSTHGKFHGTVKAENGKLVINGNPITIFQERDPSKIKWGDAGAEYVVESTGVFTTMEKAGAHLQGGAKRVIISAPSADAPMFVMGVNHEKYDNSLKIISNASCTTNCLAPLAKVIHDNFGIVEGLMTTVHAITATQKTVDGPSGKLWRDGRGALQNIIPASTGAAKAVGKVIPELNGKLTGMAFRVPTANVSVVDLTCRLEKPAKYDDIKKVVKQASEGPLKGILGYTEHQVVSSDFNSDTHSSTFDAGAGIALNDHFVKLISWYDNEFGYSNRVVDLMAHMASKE
UniProt Q96AE4: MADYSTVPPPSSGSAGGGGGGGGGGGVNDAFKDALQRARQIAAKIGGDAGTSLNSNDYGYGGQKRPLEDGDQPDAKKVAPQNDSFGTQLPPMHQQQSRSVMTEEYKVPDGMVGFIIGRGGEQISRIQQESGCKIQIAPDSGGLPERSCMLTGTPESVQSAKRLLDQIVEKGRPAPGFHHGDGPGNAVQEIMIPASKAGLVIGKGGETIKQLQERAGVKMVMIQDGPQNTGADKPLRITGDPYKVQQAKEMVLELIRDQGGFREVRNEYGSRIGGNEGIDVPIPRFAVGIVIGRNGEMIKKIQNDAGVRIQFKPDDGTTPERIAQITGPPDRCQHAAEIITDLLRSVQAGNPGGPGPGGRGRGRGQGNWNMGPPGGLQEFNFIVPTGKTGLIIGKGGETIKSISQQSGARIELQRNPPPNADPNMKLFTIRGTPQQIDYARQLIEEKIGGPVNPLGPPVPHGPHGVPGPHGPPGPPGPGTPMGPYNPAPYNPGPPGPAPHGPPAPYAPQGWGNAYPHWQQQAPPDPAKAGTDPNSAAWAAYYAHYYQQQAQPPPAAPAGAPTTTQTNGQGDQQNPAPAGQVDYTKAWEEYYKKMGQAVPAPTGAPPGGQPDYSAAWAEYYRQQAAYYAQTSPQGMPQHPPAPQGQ
UniProt Q9UET6: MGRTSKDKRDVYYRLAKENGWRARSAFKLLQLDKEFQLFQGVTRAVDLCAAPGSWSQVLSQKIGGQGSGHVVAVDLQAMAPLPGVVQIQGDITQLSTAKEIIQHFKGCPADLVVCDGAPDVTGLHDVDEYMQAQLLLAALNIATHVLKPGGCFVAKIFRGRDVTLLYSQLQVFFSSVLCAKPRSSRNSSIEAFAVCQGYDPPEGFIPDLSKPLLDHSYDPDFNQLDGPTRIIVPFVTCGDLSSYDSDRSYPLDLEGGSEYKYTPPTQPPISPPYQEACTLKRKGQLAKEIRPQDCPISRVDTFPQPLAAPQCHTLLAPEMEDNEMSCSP
UniProt Q14697: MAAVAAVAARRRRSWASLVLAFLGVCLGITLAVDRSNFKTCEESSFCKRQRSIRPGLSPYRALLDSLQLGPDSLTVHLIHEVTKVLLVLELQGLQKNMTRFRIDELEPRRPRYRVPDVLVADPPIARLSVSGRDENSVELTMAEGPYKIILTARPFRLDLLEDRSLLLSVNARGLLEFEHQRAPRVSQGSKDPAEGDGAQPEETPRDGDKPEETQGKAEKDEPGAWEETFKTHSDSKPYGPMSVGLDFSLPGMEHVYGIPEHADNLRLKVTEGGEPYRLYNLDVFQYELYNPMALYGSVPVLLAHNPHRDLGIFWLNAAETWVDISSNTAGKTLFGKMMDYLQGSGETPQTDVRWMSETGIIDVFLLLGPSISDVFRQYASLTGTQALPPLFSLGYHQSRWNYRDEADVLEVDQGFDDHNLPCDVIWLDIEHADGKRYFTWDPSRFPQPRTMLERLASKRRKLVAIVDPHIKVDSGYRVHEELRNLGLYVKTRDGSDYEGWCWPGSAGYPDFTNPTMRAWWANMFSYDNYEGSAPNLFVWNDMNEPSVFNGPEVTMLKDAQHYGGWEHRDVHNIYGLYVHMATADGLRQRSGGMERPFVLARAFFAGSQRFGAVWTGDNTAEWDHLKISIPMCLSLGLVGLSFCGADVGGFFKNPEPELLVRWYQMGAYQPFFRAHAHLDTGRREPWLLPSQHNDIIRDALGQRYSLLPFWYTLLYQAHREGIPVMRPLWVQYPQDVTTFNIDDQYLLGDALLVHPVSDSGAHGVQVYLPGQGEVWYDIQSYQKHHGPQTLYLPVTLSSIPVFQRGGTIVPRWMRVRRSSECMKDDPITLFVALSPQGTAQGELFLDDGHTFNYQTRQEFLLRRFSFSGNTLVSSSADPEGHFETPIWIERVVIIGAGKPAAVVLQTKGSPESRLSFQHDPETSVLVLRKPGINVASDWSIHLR
UniProt Q96RP9: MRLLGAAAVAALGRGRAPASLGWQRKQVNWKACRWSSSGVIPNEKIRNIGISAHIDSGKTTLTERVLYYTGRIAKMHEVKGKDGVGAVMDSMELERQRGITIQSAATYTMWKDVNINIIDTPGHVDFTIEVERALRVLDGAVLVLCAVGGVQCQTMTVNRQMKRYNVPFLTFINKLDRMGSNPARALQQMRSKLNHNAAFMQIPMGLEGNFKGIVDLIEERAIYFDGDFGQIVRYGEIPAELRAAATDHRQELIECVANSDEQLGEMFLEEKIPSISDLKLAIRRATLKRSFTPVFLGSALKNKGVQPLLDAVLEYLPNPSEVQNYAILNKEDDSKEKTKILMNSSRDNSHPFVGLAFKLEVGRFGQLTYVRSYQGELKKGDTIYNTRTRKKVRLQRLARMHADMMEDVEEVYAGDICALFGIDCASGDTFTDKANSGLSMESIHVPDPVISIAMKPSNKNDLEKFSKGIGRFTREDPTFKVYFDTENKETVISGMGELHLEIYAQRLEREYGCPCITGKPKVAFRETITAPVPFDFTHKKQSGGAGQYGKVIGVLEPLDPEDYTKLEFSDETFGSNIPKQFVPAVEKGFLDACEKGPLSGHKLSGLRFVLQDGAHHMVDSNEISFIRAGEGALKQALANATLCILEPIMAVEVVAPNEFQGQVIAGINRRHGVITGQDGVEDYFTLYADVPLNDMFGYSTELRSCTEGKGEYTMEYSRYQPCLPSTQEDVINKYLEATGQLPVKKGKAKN
UniProt P38435: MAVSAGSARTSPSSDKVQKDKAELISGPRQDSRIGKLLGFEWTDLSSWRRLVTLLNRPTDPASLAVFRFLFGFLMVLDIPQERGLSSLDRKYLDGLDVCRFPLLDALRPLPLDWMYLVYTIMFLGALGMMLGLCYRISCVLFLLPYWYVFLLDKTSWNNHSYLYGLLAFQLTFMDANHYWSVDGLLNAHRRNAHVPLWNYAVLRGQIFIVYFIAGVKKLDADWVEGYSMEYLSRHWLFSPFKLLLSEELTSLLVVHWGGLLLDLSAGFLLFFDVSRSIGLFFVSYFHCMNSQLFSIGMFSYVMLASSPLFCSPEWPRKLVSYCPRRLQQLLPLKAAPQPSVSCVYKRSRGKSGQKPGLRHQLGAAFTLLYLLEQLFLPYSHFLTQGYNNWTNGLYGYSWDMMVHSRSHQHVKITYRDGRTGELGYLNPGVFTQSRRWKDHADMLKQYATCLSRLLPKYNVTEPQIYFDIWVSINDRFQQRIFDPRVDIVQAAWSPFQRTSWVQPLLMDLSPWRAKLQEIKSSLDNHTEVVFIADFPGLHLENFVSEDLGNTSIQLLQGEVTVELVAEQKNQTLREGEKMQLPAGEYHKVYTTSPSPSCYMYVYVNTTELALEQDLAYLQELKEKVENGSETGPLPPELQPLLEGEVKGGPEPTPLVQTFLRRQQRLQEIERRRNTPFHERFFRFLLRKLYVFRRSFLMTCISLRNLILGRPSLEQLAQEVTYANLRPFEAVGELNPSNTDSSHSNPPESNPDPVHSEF
UniProt Q9NZ52: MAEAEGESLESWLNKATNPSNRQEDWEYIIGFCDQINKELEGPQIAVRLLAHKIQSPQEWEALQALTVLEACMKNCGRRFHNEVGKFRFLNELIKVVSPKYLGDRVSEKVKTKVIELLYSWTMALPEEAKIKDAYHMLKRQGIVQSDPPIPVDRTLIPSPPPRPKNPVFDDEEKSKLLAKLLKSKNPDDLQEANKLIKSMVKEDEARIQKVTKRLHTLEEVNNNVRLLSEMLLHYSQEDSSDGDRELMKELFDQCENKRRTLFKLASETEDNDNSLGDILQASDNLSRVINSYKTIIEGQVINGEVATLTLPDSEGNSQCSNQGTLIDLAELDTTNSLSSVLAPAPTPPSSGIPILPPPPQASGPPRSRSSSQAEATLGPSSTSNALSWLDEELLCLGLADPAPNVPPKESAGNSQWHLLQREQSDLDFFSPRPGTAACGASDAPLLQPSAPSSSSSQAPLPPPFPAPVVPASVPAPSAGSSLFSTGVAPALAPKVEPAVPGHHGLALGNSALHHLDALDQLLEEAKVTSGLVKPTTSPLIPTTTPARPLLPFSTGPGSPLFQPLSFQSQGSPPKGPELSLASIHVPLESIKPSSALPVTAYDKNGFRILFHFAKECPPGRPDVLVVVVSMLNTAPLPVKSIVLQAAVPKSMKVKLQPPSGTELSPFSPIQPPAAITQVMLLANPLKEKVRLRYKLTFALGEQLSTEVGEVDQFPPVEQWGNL
UniProt Q9H3K2: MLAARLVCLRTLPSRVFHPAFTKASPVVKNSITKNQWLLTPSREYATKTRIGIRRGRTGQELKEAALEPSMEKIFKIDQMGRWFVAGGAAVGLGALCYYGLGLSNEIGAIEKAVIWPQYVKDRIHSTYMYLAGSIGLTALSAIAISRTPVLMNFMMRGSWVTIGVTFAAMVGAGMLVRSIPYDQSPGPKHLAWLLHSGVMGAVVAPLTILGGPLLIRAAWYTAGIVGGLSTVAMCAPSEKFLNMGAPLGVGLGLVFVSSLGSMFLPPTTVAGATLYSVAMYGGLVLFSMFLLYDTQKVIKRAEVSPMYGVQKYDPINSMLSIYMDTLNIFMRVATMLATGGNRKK

compound: CC(C)(O)CC(=O)NCCn1ccc2ncnc(Nc3ccc(Oc4cccc(C(F)(F)F)c4)c(Cl)c3)c21; assay: log2 fold change, soluble protein after heating vs DMSO (PISA); higher = thermal stabilisation; K562 cells, 10 uM, 30 min; active = over 0.2 and 3.5 SD of the protein, either way, in both replicates (recomputed)
Method in brief: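 Soluble protein was defined as the supernatant after 21,000xg for 90 min. It came from K562 cells at 2×10^6 cells/mL given 10 μM compound for 30 min, heated in aliquots for 3 min across 48°C-58°C, pooled, and extracted in PBS with 0.5% NP-40 at 4°C, and was quantified by TMTpro 16plex LC-MS/MS with equalised channel sums. Thermal stability against control samples, from duplicates, is reported as log2 fold change.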

log2 fold change, inactive:
GGNBP2 (UniProt Q9H3C7) 0
GAB1 isoform 2 (UniProt Q13480) -0.052
FPGT (UniProt O14772) -0.138
GALK2 (UniProt Q01415) -0.054
G3BP2 (UniProt Q9UN86) 0.068
GEMIN4 (UniProt P57678) -0.001
FUNDC2 (UniProt Q9BWH2) 0.085
FXN (UniProt Q16595) 0.004
FRRS1 (UniProt Q6ZNA5) -0.093
GGPS1 (UniProt O95749) -0.005
GGH (UniProt Q92820) 0.005
GFPT1 (UniProt Q06210) -0.049
GAPDH (UniProt P04406) 0.044
GCLC (UniProt P48506) -0.052
FUBP1 (UniProt Q96AE4) -0.031
GCHFR (UniProt P30047) 0.074
GART (UniProt C9JZG2) -0.056
GALNT6 (UniProt Q8NCL4) -0.079
FTSJ1 (UniProt Q9UET6) -0.031
G3BP1 (UniProt Q13283) 0.106
GANAB isoform 2 (UniProt Q14697) 0.036
FSCN1 (UniProt Q16658) 0
FXR2 (UniProt P51116) 0.079
FUT11 (UniProt Q495W5) -0.015
FYCO1 isoform 4 (UniProt Q9BQS8) -0.041
GFM1 (UniProt Q96RP9) -0.146
GALM (UniProt Q96C23) -0.066
FTH1 (UniProt P02794) 0.115
GGCX (UniProt P38435) -0.313
GGA3 (UniProt Q9NZ52) -0.024
FRG1 (UniProt Q14331) 0.054
GHITM (UniProt Q9H3K2) -0.016
GFER (UniProt P55789) 0.034

A portion of the results above:
log2 fold change, inactive:
GAPDH (UniProt P04406) 0.044
GCLC (UniProt P48506) -0.052
FUBP1 (UniProt Q96AE4) -0.031
GCHFR (UniProt P30047) 0.074
GART (UniProt C9JZG2) -0.056
GALNT6 (UniProt Q8NCL4) -0.079
FTSJ1 (UniProt Q9UET6) -0.031
G3BP1 (UniProt Q13283) 0.106
